The campaign covered roughly 52,000 sequences. About 210 (0.4%) were called active.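 The calls were made as follows: active = gene whose silencing raises cell survival under the drug, median off-target-corrected z-score across its silencing RNAs 2 or more; inactive = the rest.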 Some of the results follow.
Test: Resistance to Poly (ADP-Ribose) Polymerase inhibitor: Gene Identification via Genome-wide siRNA Screen
Details: mouse BRCA2 R2336H ES cells, olaparib, CellTiter-Glo viability; active compounds read high
In short: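 Genome-wide siRNA screen (3 siRNAs/gene, 20 nM) in mouse ES cells carrying hypomorphic BRCA2 R2336H; olaparib 500 nM added 48 h post-transfection, CellTiter-Glo viability 72 h later. Normalized to plate-median negative control; MAD z-scores, gene median, seed-adjusted.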

Sequence	z-score
GCUGUUUGACUAAAUGAACTT against Tlr13	inactive: 0.26
GGGUUGAAUCACAAUUUGUTT against Ube2e1	inactive: -0.329
GGCCAAAUUCAACUAGUUCTT against Nudc	inactive: -1.54
GGCCGUGUUAUCCAGAUUGTT against Prkcd	inactive: -0.566
GUCUGGAGCCCUGUAUUCCTT against Nradd	inactive: 2.88
CCUUAACAUGUUUCAUCUATT against Sap30	inactive: 0.776
GGGCUAAGCACCUGAGAUCTT against 9430041C03Rik	inactive: 1.31
GGGUAUUUUCACUGAAAGUTT against Ltbp3	inactive: 0.2
GGAGAUUCUUUCUUUGAUGTT against Fgfr1op	inactive: 0.372
GGAGAUGAAUUGAUGACCCTT against Strap	inactive: 0.224
GGAGUCAAUGCAAUUGUUUTT against Arl10c	inactive: 0.394
GGGUCAUCCACUUUGUCAGTT against 1700047I17Rik	inactive: 0.323
GGAAAAGGUUAAGAAAGCATT against Hrb2	inactive: -1.48
GGAAUGGUAGAAGCAACAGTT against Kcnj5	inactive: 0.0691
GGCUGGAUAAAAAUAACUUTT against Heyl	inactive: -0.732
GGUAUUGAACCAUGGCUUATT against Mcts1	inactive: 0.054
GCAAUCAACAUUGAGAUGUTT against Rufy2	inactive: -0.231
GGCAUAGUCGAGGAGAGUGTT against 4631427C17Rik	inactive: -1
GCCUAGAAGAAAAACUAAATT against 5730409G15Rik	inactive: 0.543
GGCCAGGAAAGAUACAGGATT against Rab3c	inactive: 0.567
GCAGGUUCGAAUUCAAGGATT against Gria4	inactive: 0.449
GGACGGUCCUCUUAAAAGATT against Chat	inactive: -0.066
GCUGAUUGAACUGAAUGGATT against Slc22a9	inactive: -0.307
GCCUGAACAGCCUUGAAUUTT against 1110011D13Rik	inactive: 0.0489
GCCAAAUAGUUCCUUUCUGTT against 2010003O18Rik	inactive: 1.64
GGAUGUCCUGAAAGUAGUUTT against Plscr1	inactive: -1.55

Sequence	z-score
GGUCUGUGUCAAAAACCACTT against Klk11	inactive: -0.111
ACAUUUUCCGAGGCUUGGUTT against Rtn4rl2	inactive: -1.4
GGACCCUGAUGAGAUGAAUTT against Gcg	inactive: 0.226
GGCCAAAGCCAGAAUCUCATT against Zfp281	inactive: -0.796
GGUCAUCGGUACCACCAGATT against Rdh8	inactive: -0.0714
GGCCAAAGAGAUGCUGAAGTT against Spire2	inactive: 2.49
GCCCACGUACAGAAAACAGTT against LOC213043	inactive: 0.095
GGGUGUGAAAGUUGUCUUCTT against Foxb1	inactive: -0.345
GCAACUCUACUUGUCAAUUTT against 2210415F13Rik	inactive: 0.801
GGAAUCCUGGUGCUGAUUATT against 2900073H19Rik	inactive: -1.7
GCUACUAUGUGCCCUGAUATT against Ms4a7	inactive: -2
GGCAUCUGAGUGAUAUAAATT against 1700001E16Rik	inactive: 0.37
CCUCGAGUCAUGGUGUAUCTT against Ndufb9	inactive: 0.891
GCGACACACCAGAAGUUAUTT against Fgf7	inactive: -1.35
GGAGAGAUGGAUGGAAAAATT against 1700127D06Rik	inactive: -2.55
GCAGAAUGUCACUAAGUGCTT against Sdcbp2	inactive: 0.671
GGAGUGCAGUACAAAGGACTT against Ahsa1	inactive: -1.21
CCGCCAGACCUUCAUUACCTT against 2200003E03Rik	inactive: -0.0363
GGGACCUUGUAAUAGCAAATT against 1110054O05Rik	inactive: 1.23
GCCUCAGUUAUUUAAUGAATT against Mpp3	inactive: 0.434
GGAGAUCAAUCUAGAUUUGTT against Atpaf1	inactive: 1.33
GGAGCAGGUUACCAGAAAATT against E130114P18Rik	inactive: -1.2
GGCAGAGUAAGAGUGCACUTT against Olfr1238	inactive: -0.225
GGCUUUCCGGAGUGAUAGUTT against Scamp3	inactive: -0.104
GCUGAGGUUGAACUUUAUUTT against C330023M02Rik	inactive: -1.08
GGAUAUGGUUAAAGCCAAATT against 1810010M01Rik	inactive: 0.0946

Sequence	z-score
GCAGUGUAACAUGAUCAAUTT against Scarb1	inactive: 0.241
GGAGACACAGGAGAGAUACTT against Brd8	inactive: -1.02
GGCUCAGGACAUGUAUUACTT against Rsb30	inactive: -0.012
GGUGAUGUCCUAUUUCAAATT against 1810033M07Rik	inactive: 0.417
CUAGUAGGGUCAGAAUUUUTT against Olfr329	inactive: 2.11
GGAUGUCAUUAAACCUAAGTT against D8Ertd233e	inactive: 0.062
GCAGAUCCGGUAUUUACAUTT against AW552001	inactive: 0.699
CCUCUUAGAUCAGGAUUAUTT against Usp37	inactive: -0.0502
GGAAAGCACAUCCUCUUUGTT against Gpx6	inactive: -2.19
GGGCCUGCUCUCUUUUCUGTT against 5730414C17Rik	inactive: -0.684
CGUGCAGAGGUGGUACCAATT against 9830109N13Rik	inactive: -1.27
CCAAAUUCCUAUCAAGUUUTT against 2810417D08Rik	inactive: 0.0937
GGUAAAGAAAUCCUUCAAATT against Syt6	inactive: -0.68
GGUGAACACGUUUGUAAUGTT against Pcnx	inactive: -0.477
CCGCCUACGUAAACACCAATT against Tnk2	inactive: 1.14
GGGAGUUUUCAGACAUUCUTT against A530050P17Rik	inactive: -0.0908
CGAUUAUCGGCCCAGCAAATT against Bmp1	inactive: -1.04
GGAUCAGUGACUGAUCUUGTT against Myo3a	inactive: 0.772
GGAGGAACUGAUGACUCUGTT against 2310005P05Rik	inactive: 0.0654
CAGCAUGAUGAUGGAGACCTT against Sox1	inactive: -0.476
GCCUGAGAUCGUGAACACUTT against 2510048L02Rik	inactive: -0.446
GCAUGAGAAGAUUUAUAGGTT against Stac	inactive: 0.589
CCUUAGAUUCACUCAGCACTT against Dbpht2	inactive: 0.641
CCAUCAUUGCUCGUAUUGGTT against Olfr656	inactive: 0.017
CCUGGAAUCUGUCCCUCAUTT against Olfr262	inactive: -1.01
GGUUACAGCUUUAAGGUAATT against Ercc3	inactive: -1.24

Sequence	z-score
GGCUCUGUUCUCCACAUUGTT against Phf5a	inactive: -2.58
CGCCAUGUUUAACAAAUUGTT against Limk2	inactive: -0.417
GGCCCAUAGUUGACUACAUTT against 8-Sep	inactive: 0.301
CCUAUUAUCUACCUUACAATT against Enpp5	inactive: -0.364
GGACAAGAAUAAGUACAACTT against Rpl5	inactive: -2.78
GGAGAGAUGGUAUUGUUGGTT against Olfr1298	inactive: -0.373
AGUCGCCAACCUAUUAUUUTT against 6230427J02Rik	inactive: 0.875
GGUUCUCUGAUACCCACUCTT against 4931440L10Rik	inactive: 1.33
GAGCAUCUCAAGGAUCUUCTT against Syngr4	inactive: -1.26
GGUGUGUGACUUUUUUUGUTT against Ube2d1	inactive: 1.17
CCAUGACAAAUUCAAGCAGTT against Atf1	inactive: 0.592
GGAGAUUACCGAAGCUGGUTT against BC051227	inactive: -0.926
GUUCCGACUGAACUUGUAUTT against Psmb3	inactive: 2.21
GGUAUUCAAUAUGGUGAAGTT against 2310001H12Rik	inactive: -0.545
AUGCUUUUUGGAGCCAUAUTT against Olfr307	inactive: 0.809
CGUGGUGAUAUUGGAUUAATT against Myef2	inactive: 1.21
GGAGAGUGAAGAUUAAAUCTT against 0610012C01Rik	inactive: 0.258
GGCUAUUAAAGAUACAGCGTT against Sfxn4	inactive: 0.431
GCAACAAGAGGGCAGAAUGTT against Olfr518	inactive: -1.61
GCUUACUACCAUUGGGAAUTT against LOC434881	inactive: -1.02
GGAAGAAGAAUAAGGCUUUTT against Kua	inactive: 0.126
GGAGGAAUUCUUGAAGAUUTT against C920001D21Rik	inactive: -0.162
GGUCAUUUCUGUCUUCUACTT against Olfr323	inactive: -0.318
GGGUUUCAACGGCUGUGACTT against Mef2d	inactive: 0.799
GCUGCCGUACAGUCUCUAATT against D230010M03Rik	inactive: -2.96

A second format for part of the listing above.
Sequence | z-score
GCAUGAGAAGAUUUAUAGGTT against Stac | inactive: 0.589
CCUUAGAUUCACUCAGCACTT against Dbpht2 | inactive: 0.641
CCAUCAUUGCUCGUAUUGGTT against Olfr656 | inactive: 0.017
CCUGGAAUCUGUCCCUCAUTT against Olfr262 | inactive: -1.01
GGUUACAGCUUUAAGGUAATT against Ercc3 | inactive: -1.24
GGCUCUGUUCUCCACAUUGTT against Phf5a | inactive: -2.58
CGCCAUGUUUAACAAAUUGTT against Limk2 | inactive: -0.417
GGCCCAUAGUUGACUACAUTT against 8-Sep | inactive: 0.301
CCUAUUAUCUACCUUACAATT against Enpp5 | inactive: -0.364
GGACAAGAAUAAGUACAACTT against Rpl5 | inactive: -2.78
GGAGAGAUGGUAUUGUUGGTT against Olfr1298 | inactive: -0.373
AGUCGCCAACCUAUUAUUUTT against 6230427J02Rik | inactive: 0.875
GGUUCUCUGAUACCCACUCTT against 4931440L10Rik | inactive: 1.33
GAGCAUCUCAAGGAUCUUCTT against Syngr4 | inactive: -1.26
GGUGUGUGACUUUUUUUGUTT against Ube2d1 | inactive: 1.17
CCAUGACAAAUUCAAGCAGTT against Atf1 | inactive: 0.592
GGAGAUUACCGAAGCUGGUTT against BC051227 | inactive: -0.926
GUUCCGACUGAACUUGUAUTT against Psmb3 | inactive: 2.21
GGUAUUCAAUAUGGUGAAGTT against 2310001H12Rik | inactive: -0.545
AUGCUUUUUGGAGCCAUAUTT against Olfr307 | inactive: 0.809
CGUGGUGAUAUUGGAUUAATT against Myef2 | inactive: 1.21
GGAGAGUGAAGAUUAAAUCTT against 0610012C01Rik | inactive: 0.258
GGCUAUUAAAGAUACAGCGTT against Sfxn4 | inactive: 0.431
GCAACAAGAGGGCAGAAUGTT against Olfr518 | inactive: -1.61
GCUUACUACCAUUGGGAAUTT against LOC434881 | inactive: -1.02
GGAAGAAGAAUAAGGCUUUTT against Kua | inactive: 0.126
GGAGGAAUUCUUGAAGAUUTT against C920001D21Rik | inactive: -0.162
GGUCAUUUCUGUCUUCUACTT against Olfr323 | inactive: -0.318

From PubChem BioAssay AID1347423 (Functional Genomics Laboratory (NCATS/FGL), 2020)
